This data set deals with MUC1 (mucin 1) (human) (UniProt P15941). Put plainly: confocal fluorescence cell binding. Conditions: DMEM with 1 mg/mL BSA, 10% FBS, 4.5 g/L glucose, 150 nM aptamer, 60 min, 37 °C, cells pretreated with 100 uM chlorpromazine, aptamer folded in 1x PBS pH 7.4, protein on the cell surface.

Sequences of proteins named here, by UniProt entry; tags and fusion partners are left off. A change or cut given only in a name is not applied to a line headed by its entry.
UniProt P15941: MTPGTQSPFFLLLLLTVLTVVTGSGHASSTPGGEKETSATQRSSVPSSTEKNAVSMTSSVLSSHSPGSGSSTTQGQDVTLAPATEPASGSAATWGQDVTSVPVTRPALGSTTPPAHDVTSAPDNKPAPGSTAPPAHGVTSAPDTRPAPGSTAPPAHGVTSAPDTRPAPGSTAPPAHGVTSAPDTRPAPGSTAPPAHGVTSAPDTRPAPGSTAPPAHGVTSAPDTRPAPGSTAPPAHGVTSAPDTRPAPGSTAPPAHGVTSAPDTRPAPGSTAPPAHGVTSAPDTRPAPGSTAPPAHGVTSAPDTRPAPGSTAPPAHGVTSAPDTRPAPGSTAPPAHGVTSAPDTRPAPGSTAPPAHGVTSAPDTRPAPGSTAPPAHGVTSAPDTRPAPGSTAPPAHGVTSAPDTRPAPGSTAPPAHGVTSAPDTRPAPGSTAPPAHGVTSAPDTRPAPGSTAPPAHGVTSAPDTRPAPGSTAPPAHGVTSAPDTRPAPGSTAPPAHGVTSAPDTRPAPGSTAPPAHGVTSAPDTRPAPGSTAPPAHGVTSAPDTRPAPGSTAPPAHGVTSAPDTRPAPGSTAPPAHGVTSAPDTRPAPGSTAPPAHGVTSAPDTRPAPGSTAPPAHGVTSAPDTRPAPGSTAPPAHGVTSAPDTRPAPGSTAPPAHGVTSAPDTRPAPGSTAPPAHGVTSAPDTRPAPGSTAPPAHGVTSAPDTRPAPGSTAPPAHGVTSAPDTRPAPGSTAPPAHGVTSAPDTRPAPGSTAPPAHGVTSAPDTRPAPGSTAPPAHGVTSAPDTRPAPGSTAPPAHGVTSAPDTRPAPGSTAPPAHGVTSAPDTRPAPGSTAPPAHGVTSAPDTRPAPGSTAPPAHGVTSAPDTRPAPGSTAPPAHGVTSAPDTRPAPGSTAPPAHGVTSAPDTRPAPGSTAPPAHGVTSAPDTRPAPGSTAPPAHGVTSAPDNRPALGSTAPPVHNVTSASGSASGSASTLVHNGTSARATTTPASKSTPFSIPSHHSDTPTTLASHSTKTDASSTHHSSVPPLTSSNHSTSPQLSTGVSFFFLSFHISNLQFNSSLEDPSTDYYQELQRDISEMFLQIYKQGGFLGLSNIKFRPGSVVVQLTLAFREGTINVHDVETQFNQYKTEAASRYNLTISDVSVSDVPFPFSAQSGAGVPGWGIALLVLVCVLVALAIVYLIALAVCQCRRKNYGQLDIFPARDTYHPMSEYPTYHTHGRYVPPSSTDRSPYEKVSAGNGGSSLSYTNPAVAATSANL

For at least one entry, the source does not settle the construct or the ends of the probe. Where cells or extracts were used, other partners may take part. Negatives hold for the conditions tested. At least one verdict rests on a figure or table, not on a statement of the authors.

For the sequence “GCAGTTGATCCTTTGGATACCCTGGACCTCACGACCATTCTGC [Apt-Pri (MUC1 aptamer-primer)]”, the binding result (5 mM MgCl2, MCF-7, HeLa, A549 cells, signal follows MUC1 level, label: 5'-Cy5, single-stranded DNA) was “binds”.

Regarding “ATCTGTATTCATGTATTCTTGTATTACCTCACGACCATTCTGC [mApt-Pri (mismatched Apt-Pri, random aptamer section)]”, the binding result (5 mM MgCl2, cells, label: 5'-Cy5, single-stranded DNA) is listed as “no binding”.

For “GCAGTTGATCCTTTGGATACCCTGGACCTCACGACCATTCTGC / CTAACAATTATCACTGGGTCGTGAGGT / GTACGGCAGAATCAGTGATAATTGTTAGAAGAAAAAAAAATCCCAACCCGCCCTACCCTA [DNA ternary complex (Apt-Pri/Ass-Pri/Loop)]”, the binding result (5 mM MgCl2, cells before polymerase addition, Loop strand circularized, label: 5'-Cy5 on Apt-Pri) is “binds”.

(Values after paper PMC7150497.)
